# According to PMC10602929:
# Sequences of proteins named here, by UniProt entry; tags and fusion partners are left off.
# UniProt Q92621: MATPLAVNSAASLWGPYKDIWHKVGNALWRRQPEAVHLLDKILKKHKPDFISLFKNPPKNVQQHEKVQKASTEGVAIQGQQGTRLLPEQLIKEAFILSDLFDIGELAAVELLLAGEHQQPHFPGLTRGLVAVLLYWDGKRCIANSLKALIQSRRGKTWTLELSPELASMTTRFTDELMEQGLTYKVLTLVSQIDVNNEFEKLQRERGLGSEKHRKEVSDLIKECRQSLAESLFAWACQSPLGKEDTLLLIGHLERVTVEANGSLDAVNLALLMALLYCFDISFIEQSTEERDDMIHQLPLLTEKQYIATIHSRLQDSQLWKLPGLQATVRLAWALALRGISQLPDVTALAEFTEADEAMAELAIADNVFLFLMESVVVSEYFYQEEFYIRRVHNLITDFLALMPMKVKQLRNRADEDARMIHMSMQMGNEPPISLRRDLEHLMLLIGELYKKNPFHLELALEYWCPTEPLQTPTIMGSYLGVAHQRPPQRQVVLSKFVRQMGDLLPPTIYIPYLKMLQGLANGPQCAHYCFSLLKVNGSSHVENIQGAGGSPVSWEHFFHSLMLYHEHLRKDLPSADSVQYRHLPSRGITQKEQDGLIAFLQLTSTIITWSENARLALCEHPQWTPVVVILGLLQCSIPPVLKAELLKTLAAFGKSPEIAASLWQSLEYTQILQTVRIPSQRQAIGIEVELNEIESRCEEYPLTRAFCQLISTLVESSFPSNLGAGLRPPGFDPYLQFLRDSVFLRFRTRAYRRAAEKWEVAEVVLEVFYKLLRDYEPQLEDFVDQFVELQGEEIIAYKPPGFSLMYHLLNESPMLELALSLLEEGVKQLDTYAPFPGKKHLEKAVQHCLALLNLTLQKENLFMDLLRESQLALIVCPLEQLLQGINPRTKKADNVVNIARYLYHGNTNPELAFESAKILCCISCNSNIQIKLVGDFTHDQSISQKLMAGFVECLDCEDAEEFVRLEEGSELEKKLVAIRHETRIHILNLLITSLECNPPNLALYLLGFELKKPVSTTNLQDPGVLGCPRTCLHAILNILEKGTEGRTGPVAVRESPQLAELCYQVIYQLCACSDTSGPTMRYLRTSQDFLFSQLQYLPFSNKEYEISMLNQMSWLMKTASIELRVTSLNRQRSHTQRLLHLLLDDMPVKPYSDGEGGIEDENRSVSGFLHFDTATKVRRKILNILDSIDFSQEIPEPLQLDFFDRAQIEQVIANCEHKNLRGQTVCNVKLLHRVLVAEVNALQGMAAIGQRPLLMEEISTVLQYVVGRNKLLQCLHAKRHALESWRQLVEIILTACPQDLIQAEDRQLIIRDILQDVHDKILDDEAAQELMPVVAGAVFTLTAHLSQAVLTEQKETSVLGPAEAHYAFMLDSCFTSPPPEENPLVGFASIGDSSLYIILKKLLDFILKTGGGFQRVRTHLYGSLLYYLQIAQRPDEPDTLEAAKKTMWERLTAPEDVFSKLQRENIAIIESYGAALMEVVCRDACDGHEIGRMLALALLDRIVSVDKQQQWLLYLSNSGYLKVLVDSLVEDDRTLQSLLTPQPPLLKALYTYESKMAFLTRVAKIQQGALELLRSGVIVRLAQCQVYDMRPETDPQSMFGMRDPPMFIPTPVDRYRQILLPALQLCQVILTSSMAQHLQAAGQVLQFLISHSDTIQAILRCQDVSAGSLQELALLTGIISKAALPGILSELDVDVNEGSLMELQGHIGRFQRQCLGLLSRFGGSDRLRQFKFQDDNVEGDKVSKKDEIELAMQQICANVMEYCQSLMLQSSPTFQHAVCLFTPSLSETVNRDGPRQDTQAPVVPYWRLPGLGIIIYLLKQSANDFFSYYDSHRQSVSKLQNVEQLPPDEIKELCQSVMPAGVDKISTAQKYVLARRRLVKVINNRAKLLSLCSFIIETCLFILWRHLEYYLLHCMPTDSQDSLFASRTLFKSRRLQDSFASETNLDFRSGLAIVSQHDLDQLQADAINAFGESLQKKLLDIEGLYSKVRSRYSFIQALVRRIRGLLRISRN
# Results are given in words; binding and its absence hold for the method and conditions named. Binding seen in cells or lysates may run through a third protein. These calls come from enrichment with a bait or labelling near it, and not all partners need be listed. Where a sequence is shown, tags or fusion partners need not be part of it.
# T1: HA-MST2 (UniProt Q13188)
# T1 sequence: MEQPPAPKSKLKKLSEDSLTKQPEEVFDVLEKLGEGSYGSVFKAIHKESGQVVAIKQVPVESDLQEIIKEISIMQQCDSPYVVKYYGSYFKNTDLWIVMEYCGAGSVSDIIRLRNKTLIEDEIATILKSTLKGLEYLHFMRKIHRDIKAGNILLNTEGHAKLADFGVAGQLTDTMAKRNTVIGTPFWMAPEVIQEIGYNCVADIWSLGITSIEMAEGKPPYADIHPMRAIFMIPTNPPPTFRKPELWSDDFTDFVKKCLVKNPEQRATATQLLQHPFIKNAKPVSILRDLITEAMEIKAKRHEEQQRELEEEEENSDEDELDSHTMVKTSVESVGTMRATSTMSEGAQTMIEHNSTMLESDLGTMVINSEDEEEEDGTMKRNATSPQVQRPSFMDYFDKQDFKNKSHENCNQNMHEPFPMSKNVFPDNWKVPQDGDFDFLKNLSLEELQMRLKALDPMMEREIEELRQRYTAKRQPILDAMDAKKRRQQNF
# T2: HA-TRIM69A (UniProt Q86WT6)
# T2 sequence: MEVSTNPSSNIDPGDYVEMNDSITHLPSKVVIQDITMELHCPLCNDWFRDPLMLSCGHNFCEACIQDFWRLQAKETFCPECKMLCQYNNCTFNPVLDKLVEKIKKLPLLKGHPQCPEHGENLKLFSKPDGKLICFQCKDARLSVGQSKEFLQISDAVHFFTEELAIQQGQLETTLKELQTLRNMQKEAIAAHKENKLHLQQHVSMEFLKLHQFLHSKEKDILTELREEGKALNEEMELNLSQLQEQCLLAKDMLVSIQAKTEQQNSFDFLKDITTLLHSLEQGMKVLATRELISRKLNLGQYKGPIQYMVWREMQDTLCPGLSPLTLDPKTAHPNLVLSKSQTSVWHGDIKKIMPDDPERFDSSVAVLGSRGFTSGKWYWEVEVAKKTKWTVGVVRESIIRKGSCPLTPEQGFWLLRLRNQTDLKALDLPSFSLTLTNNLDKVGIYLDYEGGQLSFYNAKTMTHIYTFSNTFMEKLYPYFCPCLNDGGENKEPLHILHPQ
# Target: T1, HA-MST2
# Assay: affinity purification with mass spectrometry; Figure 4A; MST2 complexes immunopurified from detergent-soluble and detergent-insoluble fractions of cells with or without co-expressed TRIM69A (WT or catalytically-inactive mutant); on-bead trypsin digestion, LC/MS/MS
row,Molecule,binding
1,"zinc ribbon domain containing 2, endogenous (protein, UniProt O60232 1-199) MALNGAEVDDFSWEPPTEAETKVLQARRERQDRISRLMGDYLLRGYRMLGETCADCGTILLQDKQRKIYCVACQELDSDVDKDNPALNAQAALSQAREHQLASASELPLGSRPAPQPPVPRPEHCEGAAAGLKAAQGPPAPAVPPNTDVMACTQTALLQKLTWASAELGSSTSLETSIQLCGLIRACAEALRSLQQLQH",binds
2,"NDE1, endogenous (protein, UniProt Q9NXR1 1-335) MEDSGKTFSSEEEEANYWKDLAMTYKQRAENTQEELREFQEGSREYEAELETQLQQIETRNRDLLSENNRLRMELETIKEKFEVQHSEGYRQISALEDDLAQTKAIKDQLQKYIRELEQANDDLERAKRATIMSLEDFEQRLNQAIERNAFLESELDEKENLLESVQRLKDEARDLRQELAVQQKQEKPRTPMPSSVEAERTDTAVQATGSVPSTPIAHRGPSSSLNTPGSFRRGLDDSTGGTPLTPAARISALNIVGDLLRKVGALESKLASCRNLVYDQSPNRTGGPASGRSSKNRDGGERRPSSTSVPLGDKGLDTSCRWLSKSTTRSSSSC",binds
3,"TNPO2, endogenous (protein, UniProt O14787 1-897) MDWQPDEQGLQQVLQLLKDSQSPNTATQRIVQDKLKQLNQFPDFNNYLIFVLTRLKSEDEPTRSLSGLILKNNVKAHYQSFPPPVADFIKQECLNNIGDASSLIRATIGILITTIASKGELQMWPELLPQLCNLLNSEDYNTCEGAFGALQKICEDSSELLDSDALNRPLNIMIPKFLQFFKHCSPKIRSHAIACVNQFIMDRAQALMDNIDTFIEHLFALAVDDDPEVRKNVCRALVMLLEVRIDRLIPHMHSIIQYMLQRTQDHDENVALEACEFWLTLAEQPICKEVLASHLVQLIPILVNGMKYSEIDIILLKGDVEEDEAVPDSEQDIKPRFHKSRTVTLPHEAERPDGSEDAEDDDDDDALSDWNLRKCSAAALDVLANVFREELLPHLLPLLKGLLFHPEWVVKESGILVLGAIAEGCMQGMVPYLPELIPHLIQCLSDKKALVRSIACWTLSRYAHWVVSQPPDMHLKPLMTELLKRILDGNKRVQEAACSAFATLEEEACTELVPYLSYILDTLVFAFGKYQHKNLLILYDAIGTLADSVGHHLNQPEYIQKLMPPLIQKWNELKDEDKDLFPLLECLSSVATALQSGFLPYCEPVYQRCVTLVQKTLAQAMMYTQHPEQYEAPDKDFMIVALDLLSGLAEGLGGHVEQLVARSNIMTLLFQCMQDSMPEVRQSSFALLGDLTKACFIHVKPCIAEFMPILGTNLNPEFISVCNNATWAIGEICMQMGAEMQPYVQMVLNNLVEIINRPNTPKTLLENTGRLTSPSAIPAITIGRLGYVCPQEVAPMLQQFIRPWCTSLRNIRDNEEKDSAFRGICMMIGVNPGGVVQDFIFFCDAVASWVSPKDDLRDMFYKILHGFKDQVGEDNWQQFSEQFPPLLKERLAAFYGV",binds

# Target: T2, HA-TRIM69A
# Assay: affinity purification with mass spectrometry; anti-HA immunopurification of HA-TRIM69A and HA-TRIM69B complexes from detergent-soluble and detergent-insoluble (DNAse, sonication) extracts of adenovirus-transduced H1299 cells; empty adenovirus vector as control; on-bead trypsin digestion, LC/MS/MS
row,Molecule,binding
1,"Dynein Cytoplasmic 1 Heavy Chain 1 (DYNC1H1), endogenous (from UniProt Q14204 1-4646)",binds
2,"Nuclear Pore protein NUP205, endogenous (from UniProt Q92621 1-2012)",binds
3,"Nuclear Pore protein NUP133, endogenous (protein, UniProt Q8WUM0 1-1156) MFPAAPSPRTPGTGSRRGPLAGLGPGSTPRTASRKGLPLGSAVSSPVLFSPVGRRSSLSSRGTPTRMFPHHSITESVNYDVKTFGSSLPVKVMEALTLAEVDDQLTINIDEGGWACLVCKEKLIIWKIALSPITKLSVCKELQLPPSDFHWSADLVALSYSSPSGEAHSTQAVAVMVATREGSIRYWPSLAGEDTYTEAFVDSGGDKTYSFLTAVQGGSFILSSSGSQLIRLIPESSGKIHQHILPQGQGMLSGIGRKVSSLFGILSPSSDLTLSSVLWDRERSSFYSLTSSNISKWELDDSSEKHAYSWDINRALKENITDAIWGSESNYEAIKEGVNIRYLDLKQNCDGLVILAAAWHSADNPCLIYYSLITIEDNGCQMSDAVTVEVTQYNPPFQSEDLILCQLTVPNFSNQTAYLYNESAVYVCSTGTGKFSLPQEKIVFNAQGDSVLGAGACGGVPIIFSRNSGLVSITSRENVSILAEDLEGSLASSVAGPNSESMIFETTTKNETIAQEDKIKLLKAAFLQYCRKDLGHAQMVVDELFSSHSDLDSDSELDRAVTQISVDLMDDYPASDPRWAESVPEEAPGFSNTSLIILHQLEDKMKAHSFLMDFIHQVGLFGRLGSFPVRGTPMATRLLLCEHAEKLSAAIVLKNHHSRLSDLVNTAILIALNKREYEIPSNLTPADVFFREVSQVDTICECLLEHEEQVLRDAPMDSIEWAEVVINVNNILKDMLQAASHYRQNRNSLYRREESLEKEPEYVPWTATSGPGGIRTVIIRQHEIVLKVAYPQADSNLRNIVTEQLVALIDCFLDGYVSQLKSVDKSSNRERYDNLEMEYLQKRSDLLSPLLSLGQYLWAASLAEKYCDFDILVQMCEQTDNQSRLQRYMTQFADQNFSDFLFRWYLEKGKRGKLLSQPISQHGQLANFLQAHEHLSWLHEINSQELEKAHATLLGLANMETRYFAKKKTLLGLSKLAALASDFSEDMLQEKIEEMAEQERFLLHQETLPEQLLAEKQLNLSAMPVLTAPQLIGLYICEENRRANEYDFKKALDLLEYIDEEEDININDLKLEILCKALQRDNWSSSDGKDDPIEVSKDSIFVKILQKLLKDGIQLSEYLPEVKDLLQADQLGSLKSNPYFEFVLKANYEYYVQGQI",binds
